At least one compound was matched to its structure with a doubt left.
Target: T1, HiBit-labeled full length SHIP1 protein (Homo sapiens, UniProt Q92835)
T1 construct: thermal stability of a HiBit-labeled full length SHIP1 protein in intact cells; expressed in transfected cells; host or cells: HMC3 (stably transfected)
T1 sequence (Q92835 1-1189): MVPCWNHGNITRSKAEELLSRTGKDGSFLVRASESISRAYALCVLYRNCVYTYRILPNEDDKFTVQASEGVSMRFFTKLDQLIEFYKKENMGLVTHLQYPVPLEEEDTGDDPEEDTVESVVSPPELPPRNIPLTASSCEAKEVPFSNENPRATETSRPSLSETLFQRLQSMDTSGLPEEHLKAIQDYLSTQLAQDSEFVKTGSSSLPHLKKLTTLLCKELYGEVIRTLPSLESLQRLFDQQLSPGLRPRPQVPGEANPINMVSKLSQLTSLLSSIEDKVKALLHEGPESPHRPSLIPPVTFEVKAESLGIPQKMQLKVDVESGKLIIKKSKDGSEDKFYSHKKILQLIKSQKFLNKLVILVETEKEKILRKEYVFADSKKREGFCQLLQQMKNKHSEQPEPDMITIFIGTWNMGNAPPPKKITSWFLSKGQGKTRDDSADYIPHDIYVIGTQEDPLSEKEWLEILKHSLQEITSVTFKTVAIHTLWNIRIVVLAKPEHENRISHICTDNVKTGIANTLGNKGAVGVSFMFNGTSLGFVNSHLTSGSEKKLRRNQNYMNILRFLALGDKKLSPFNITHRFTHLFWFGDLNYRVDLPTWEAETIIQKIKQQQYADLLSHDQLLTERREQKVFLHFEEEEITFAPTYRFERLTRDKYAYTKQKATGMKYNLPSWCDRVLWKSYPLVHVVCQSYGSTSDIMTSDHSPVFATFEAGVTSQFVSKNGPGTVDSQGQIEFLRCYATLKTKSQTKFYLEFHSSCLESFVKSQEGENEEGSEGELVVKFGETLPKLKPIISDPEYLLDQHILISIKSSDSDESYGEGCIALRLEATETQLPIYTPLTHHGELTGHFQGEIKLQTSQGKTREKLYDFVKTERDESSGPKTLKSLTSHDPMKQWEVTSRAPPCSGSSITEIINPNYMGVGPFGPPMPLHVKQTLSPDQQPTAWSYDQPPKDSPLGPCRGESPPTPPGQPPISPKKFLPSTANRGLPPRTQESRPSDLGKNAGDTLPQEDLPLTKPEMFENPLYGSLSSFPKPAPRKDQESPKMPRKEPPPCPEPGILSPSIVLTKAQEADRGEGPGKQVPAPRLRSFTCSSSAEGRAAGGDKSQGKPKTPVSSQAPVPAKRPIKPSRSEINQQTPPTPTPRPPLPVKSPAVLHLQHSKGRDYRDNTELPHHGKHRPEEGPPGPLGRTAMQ
Assay: Cellular thermal shift assay (SplitLuc CETSA), thermal shift format
Assay type: cell-based
Set-up: key: Y = ΔTm difference of 40 μM compound treated cells from control is Tm > 3SD; N: otherwise negative
Settings: 40 μM compound for 60 min, HMC3/HiBit-INPP5D cells, 38-52° C. gradient; target engagement positive/negative
Method: Cellular thermal shift assay (CETSA). […] This assay was run in the following two formats with HMC3/HiBit-INPP5D stably transfected cells.
1. Thermal shift: cells were treated with 40 μM compound for 60 min, then heated with a temperature gradient covering 38-52° C. for 3 min before luminescence detection. Mean and standard deviation of control Tm were determined to generate a “Mean+3SD” ΔTm, which was used as threshold to determine a significant ΔTm of compound from control. When the difference of ΔTm of compound treated cells from control Tm>3SD, the compound was considered positive for target engagement, otherwise negative. SD=average standard deviation.
See Martinez et al. (2018) Sci Rep 8: p. 9472; Oh-Hashi et al. (2017) Biochem Biophys Rep 12: pp. 40-45. This assay was run in the following two formats with HMC3/HiBit-INPP5D stably transfected cells.
Thermal shift: cells were treated with 40 μM compound for 60 min, then heated with a temperature gradient covering 38-52° C. for 3 min before luminescence detection. Mean and standard deviation of control Tm were determined to generate a “Mean+3SD” ΔTm, which was used as threshold to determine a significant ΔTm of compound from control. When the difference of ΔTm of compound treated cells from control Tm>3SD, the compound was considered positive for target engagement, otherwise negative. SD=average standard deviation.

O=C(OCc1ccccc1)N1CCC(n2cc(-c3cncc(OCc4ccccc4Cl)c3)cn2)CC1 [Compound 19, Benzyl 4-(4-(5-((2-chlorobenzyl)oxy)pyridin-3-yl)-1H-pyrazol-1-yl)piperidine-1-carboxylate]
CETSA SP: N
